Experimental data published in article PMC5966398.

Tests used:
[1] = biological target: T1, SpYY1 (native, ova lysate) (Strongylocentrotus purpuratus) (UniProt A0A7M7RHL1); test: competition with a labelled probe; details: 50 mM NaCl, 50 mM Tris-HCl pH 7.5, 2 mM MgCl2, 1 mM DTT, 5% glycerol, room temperature 20 min, 10 nM probe, protein in an extract, unlabelled as competitor
[2] = biological target: T1, SpYY1 (native, ova lysate) (Strongylocentrotus purpuratus); test: EMSA; details: 50 mM NaCl, 50 mM Tris-HCl pH 7.5, 2 mM MgCl2, 1 mM DTT, 5% glycerol, room temperature 20 min, 10 nM probe, protein in an extract, unlabelled as competitor

Measured: binding result

CTAGGCGCTCCCCGGCCATCTTGGCGGCTGGT (double strand) [YY1 consensus DNA element (YY1C)]
binds: [1]; 10x excess vs U(20) probe, label: 32P end-fill when probe | [1]; 10x excess vs YY1 DNA probe, label: 32P end-fill when probe | [2]; with or without RNase (no significant change), label: 32P end-fill when probe

UUUUUUUUUUUUUUUUUUUU [U(20) RNA]
binds: [1]; 10x excess vs U(20) probe, label: 5'-32P when probe | [1]; 10x excess vs YY1 DNA probe, label: 5'-32P when probe | [2]; with or without RNase pretreatment (no difference), label: 5'-32P when probe

The exact form of at least one protein or probe is not confirmed. Where cells or extracts were used, other partners may take part.
